Measured values taken from article doi:10.1101/2025.02.21.639304.
Results are given in words; binding and its absence hold for the method and conditions named. Binding seen in cells or lysates may run through a third protein. Some binding calls cover weakened binding; strength is not graded here.

The chains behind the UniProt entries cited, without tags or fusion partners. Where a name states a change or a piece, a line headed by the entry shows the natural chain unless it says otherwise.
UniProt O60674: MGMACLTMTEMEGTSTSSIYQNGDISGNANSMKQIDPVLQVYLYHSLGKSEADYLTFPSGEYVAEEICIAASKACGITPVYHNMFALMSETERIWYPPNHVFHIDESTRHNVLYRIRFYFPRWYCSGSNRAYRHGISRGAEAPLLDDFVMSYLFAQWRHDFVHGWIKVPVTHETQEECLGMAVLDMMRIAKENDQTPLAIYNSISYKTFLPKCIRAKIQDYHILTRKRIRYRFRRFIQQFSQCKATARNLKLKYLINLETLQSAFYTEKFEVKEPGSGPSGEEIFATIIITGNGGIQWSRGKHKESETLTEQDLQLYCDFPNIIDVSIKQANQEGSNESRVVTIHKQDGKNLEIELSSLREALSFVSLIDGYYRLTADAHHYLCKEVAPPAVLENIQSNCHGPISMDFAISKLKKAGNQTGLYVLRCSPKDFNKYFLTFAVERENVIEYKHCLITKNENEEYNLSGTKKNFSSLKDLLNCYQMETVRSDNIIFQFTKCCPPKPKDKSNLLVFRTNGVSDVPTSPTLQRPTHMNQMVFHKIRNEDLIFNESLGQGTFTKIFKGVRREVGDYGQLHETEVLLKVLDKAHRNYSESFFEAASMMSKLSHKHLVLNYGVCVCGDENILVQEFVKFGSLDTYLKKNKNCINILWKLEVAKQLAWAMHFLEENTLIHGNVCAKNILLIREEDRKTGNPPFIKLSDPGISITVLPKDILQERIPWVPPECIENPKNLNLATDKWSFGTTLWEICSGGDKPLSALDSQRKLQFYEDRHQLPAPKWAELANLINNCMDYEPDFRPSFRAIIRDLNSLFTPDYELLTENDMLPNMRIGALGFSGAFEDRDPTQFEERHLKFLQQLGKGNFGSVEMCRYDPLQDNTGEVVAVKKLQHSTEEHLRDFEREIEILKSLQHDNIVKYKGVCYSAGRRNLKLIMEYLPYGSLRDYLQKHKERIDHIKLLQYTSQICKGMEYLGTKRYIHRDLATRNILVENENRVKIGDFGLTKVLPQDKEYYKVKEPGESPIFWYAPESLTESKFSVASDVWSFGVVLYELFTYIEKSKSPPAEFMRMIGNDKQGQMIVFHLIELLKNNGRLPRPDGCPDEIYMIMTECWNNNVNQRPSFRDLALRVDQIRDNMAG
UniProt P42224: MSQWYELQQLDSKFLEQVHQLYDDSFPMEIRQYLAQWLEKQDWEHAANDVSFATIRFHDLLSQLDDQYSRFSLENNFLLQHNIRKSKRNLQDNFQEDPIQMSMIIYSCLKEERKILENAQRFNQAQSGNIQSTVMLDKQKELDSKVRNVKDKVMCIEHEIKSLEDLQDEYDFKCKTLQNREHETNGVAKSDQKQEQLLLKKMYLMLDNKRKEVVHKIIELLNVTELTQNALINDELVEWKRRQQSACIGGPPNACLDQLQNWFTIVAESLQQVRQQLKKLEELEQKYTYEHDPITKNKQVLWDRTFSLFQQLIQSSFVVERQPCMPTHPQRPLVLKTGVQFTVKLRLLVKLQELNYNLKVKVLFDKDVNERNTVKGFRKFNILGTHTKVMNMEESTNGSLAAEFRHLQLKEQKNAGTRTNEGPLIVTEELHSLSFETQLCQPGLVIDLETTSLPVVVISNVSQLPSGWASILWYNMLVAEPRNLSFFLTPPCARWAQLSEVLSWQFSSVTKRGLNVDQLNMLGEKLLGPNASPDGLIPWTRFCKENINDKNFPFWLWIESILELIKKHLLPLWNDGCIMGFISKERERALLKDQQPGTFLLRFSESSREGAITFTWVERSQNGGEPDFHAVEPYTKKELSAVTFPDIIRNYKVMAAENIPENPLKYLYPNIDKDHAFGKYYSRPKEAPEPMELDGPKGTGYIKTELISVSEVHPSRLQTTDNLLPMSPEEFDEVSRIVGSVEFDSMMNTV

Molecular target: JAK2 (human (endogenous in TF-1, F36P)) (UniProt O60674)
Assay: co-IP

- binding: binds
Substance: STAT1 (from UniProt P42224 1-750)
